Source: patent publication US20160168210A1, “DERIVATIVES OF COLLAGEN-BINDING HAIRPIN PEPTIDES” (NATIONAL RESEARCH COUNCIL OF CANADA, priority 2012, published 2016)

Tested on: abdominal vena cava injured by FeCl3
Settings: about 200 μl of imaging probe injected

| Substance | Mean thrombus weight |
| --- | --- |
| STWTWNGTNWTRNDGGC-Fluor750 (HiLyte Fluor750 conjugate; FL4447) | 0.02184 g |
| FL4312: structurally identical to FL4247, but prepared from a different synthesis of the starting peptide P4247 (IRFTDGEWTWDDATKTWTWTEGGC) | 0.02793 g |
